{
  "source": "paper PMC6355014",
  "about": "“Isolation and characterization of a tandem-repeated cysteine protease from the symbiotic dinoflagellate Symbiodinium sp. KB8” (PLoS ONE, 2019)",
  "system": "T1, VLKP (VLK protease), purified native",
  "T1 construct": "native purification from algal cells; repeats Lys37-Ala332 and Lys357-Ala652 identical; final prep also held Fe-superoxide dismutase band",
  "experiment": "fluorogenic peptidase assay",
  "assay_type": "biochemical, Symbiodinium sp. KB8",
  "conditions": "residual activity, control 100%, substrate Boc-VLK-MCA, pH 4.0, 37 °C (standard assay)",
  "excerpt": "fluorogenic peptidase assay on VLKP (VLK protease), purified native",
  "note": "Starred links: 1 amine or outer side, 2 acyl side, 3 side chain; linkers in the order of their positions; H or OH if unused. Residues, ends and D or L forms follow the SMILES beside them. CO = O=C([*:1])[*:2]",
  "data": [
    {"smiles": "CC(C)C[C@H](NC(=O)[C@H]1O[C@@H]1C(=O)O)C(=O)NCCCCN=C(N)N", "note": "[E-64, trans-epoxysuccinyl-L-leucyl-amido(4-guanidino)butane]", "values": [
      {"measurement": "Relative activity (%)", "setting": "1 µM", "result": "2.0 ± 1.1", "unit": "%"}
    ]},
    {"smiles": "Cc1ccc(S(=O)(=O)N[C@@H](Cc2ccccc2)C(=O)CCl)cc1", "note": "[TPCK]", "values": [
      {"measurement": "Relative activity (%)", "setting": "10 µM", "result": "17.7 ± 2.4", "unit": "%"}
    ]},
    {"smiles": "CC(=O)N[C@@H](CC(C)C)C(=O)N[C@@H](CC(C)C)C(=O)N[C@H](C=O)CCCNC(=N)N", "note": "[leupeptin]", "values": [
      {"measurement": "Relative activity (%)", "setting": "10 µM", "result": "2.0 ± 1.0", "unit": "%"}
    ]},
    {"smiles": "CC(C)[C@H](NC(=O)[C@H](CCCNC(=N)N)NC(=O)N[C@@H](Cc1ccccc1)C(=O)O)C(=O)N[C@H](C=O)CCCNC(=N)N", "note": "[antipain] ({Phe-CO}-Arg-Val-Arg-aldehyde)", "values": [
      {"measurement": "Relative activity (%)", "setting": "10 µM", "result": "9.0 ± 0.4", "unit": "%"}
    ]}
  ]
}
